In publication PMC9505868:
Results are given in words; binding and its absence hold for the method and conditions named. Binding seen in cells or lysates may run through a third protein. A result given as binding can be weak or reduced; the word gives no strength.

Protein sequences, listed by entry. Tags and fused reporters are not part of them. Lines headed by an entry give the natural chain unless they say otherwise; changes in a name come on top.
UniProt Q05128: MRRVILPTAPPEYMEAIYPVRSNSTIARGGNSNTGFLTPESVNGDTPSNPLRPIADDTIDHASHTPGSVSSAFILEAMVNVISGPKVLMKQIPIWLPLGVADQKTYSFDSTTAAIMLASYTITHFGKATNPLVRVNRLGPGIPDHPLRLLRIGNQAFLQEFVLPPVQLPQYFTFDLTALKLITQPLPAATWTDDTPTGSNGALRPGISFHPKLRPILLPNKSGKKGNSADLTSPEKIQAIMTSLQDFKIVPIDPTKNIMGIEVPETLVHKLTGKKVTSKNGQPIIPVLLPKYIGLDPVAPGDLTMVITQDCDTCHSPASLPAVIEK
UniProt P46939: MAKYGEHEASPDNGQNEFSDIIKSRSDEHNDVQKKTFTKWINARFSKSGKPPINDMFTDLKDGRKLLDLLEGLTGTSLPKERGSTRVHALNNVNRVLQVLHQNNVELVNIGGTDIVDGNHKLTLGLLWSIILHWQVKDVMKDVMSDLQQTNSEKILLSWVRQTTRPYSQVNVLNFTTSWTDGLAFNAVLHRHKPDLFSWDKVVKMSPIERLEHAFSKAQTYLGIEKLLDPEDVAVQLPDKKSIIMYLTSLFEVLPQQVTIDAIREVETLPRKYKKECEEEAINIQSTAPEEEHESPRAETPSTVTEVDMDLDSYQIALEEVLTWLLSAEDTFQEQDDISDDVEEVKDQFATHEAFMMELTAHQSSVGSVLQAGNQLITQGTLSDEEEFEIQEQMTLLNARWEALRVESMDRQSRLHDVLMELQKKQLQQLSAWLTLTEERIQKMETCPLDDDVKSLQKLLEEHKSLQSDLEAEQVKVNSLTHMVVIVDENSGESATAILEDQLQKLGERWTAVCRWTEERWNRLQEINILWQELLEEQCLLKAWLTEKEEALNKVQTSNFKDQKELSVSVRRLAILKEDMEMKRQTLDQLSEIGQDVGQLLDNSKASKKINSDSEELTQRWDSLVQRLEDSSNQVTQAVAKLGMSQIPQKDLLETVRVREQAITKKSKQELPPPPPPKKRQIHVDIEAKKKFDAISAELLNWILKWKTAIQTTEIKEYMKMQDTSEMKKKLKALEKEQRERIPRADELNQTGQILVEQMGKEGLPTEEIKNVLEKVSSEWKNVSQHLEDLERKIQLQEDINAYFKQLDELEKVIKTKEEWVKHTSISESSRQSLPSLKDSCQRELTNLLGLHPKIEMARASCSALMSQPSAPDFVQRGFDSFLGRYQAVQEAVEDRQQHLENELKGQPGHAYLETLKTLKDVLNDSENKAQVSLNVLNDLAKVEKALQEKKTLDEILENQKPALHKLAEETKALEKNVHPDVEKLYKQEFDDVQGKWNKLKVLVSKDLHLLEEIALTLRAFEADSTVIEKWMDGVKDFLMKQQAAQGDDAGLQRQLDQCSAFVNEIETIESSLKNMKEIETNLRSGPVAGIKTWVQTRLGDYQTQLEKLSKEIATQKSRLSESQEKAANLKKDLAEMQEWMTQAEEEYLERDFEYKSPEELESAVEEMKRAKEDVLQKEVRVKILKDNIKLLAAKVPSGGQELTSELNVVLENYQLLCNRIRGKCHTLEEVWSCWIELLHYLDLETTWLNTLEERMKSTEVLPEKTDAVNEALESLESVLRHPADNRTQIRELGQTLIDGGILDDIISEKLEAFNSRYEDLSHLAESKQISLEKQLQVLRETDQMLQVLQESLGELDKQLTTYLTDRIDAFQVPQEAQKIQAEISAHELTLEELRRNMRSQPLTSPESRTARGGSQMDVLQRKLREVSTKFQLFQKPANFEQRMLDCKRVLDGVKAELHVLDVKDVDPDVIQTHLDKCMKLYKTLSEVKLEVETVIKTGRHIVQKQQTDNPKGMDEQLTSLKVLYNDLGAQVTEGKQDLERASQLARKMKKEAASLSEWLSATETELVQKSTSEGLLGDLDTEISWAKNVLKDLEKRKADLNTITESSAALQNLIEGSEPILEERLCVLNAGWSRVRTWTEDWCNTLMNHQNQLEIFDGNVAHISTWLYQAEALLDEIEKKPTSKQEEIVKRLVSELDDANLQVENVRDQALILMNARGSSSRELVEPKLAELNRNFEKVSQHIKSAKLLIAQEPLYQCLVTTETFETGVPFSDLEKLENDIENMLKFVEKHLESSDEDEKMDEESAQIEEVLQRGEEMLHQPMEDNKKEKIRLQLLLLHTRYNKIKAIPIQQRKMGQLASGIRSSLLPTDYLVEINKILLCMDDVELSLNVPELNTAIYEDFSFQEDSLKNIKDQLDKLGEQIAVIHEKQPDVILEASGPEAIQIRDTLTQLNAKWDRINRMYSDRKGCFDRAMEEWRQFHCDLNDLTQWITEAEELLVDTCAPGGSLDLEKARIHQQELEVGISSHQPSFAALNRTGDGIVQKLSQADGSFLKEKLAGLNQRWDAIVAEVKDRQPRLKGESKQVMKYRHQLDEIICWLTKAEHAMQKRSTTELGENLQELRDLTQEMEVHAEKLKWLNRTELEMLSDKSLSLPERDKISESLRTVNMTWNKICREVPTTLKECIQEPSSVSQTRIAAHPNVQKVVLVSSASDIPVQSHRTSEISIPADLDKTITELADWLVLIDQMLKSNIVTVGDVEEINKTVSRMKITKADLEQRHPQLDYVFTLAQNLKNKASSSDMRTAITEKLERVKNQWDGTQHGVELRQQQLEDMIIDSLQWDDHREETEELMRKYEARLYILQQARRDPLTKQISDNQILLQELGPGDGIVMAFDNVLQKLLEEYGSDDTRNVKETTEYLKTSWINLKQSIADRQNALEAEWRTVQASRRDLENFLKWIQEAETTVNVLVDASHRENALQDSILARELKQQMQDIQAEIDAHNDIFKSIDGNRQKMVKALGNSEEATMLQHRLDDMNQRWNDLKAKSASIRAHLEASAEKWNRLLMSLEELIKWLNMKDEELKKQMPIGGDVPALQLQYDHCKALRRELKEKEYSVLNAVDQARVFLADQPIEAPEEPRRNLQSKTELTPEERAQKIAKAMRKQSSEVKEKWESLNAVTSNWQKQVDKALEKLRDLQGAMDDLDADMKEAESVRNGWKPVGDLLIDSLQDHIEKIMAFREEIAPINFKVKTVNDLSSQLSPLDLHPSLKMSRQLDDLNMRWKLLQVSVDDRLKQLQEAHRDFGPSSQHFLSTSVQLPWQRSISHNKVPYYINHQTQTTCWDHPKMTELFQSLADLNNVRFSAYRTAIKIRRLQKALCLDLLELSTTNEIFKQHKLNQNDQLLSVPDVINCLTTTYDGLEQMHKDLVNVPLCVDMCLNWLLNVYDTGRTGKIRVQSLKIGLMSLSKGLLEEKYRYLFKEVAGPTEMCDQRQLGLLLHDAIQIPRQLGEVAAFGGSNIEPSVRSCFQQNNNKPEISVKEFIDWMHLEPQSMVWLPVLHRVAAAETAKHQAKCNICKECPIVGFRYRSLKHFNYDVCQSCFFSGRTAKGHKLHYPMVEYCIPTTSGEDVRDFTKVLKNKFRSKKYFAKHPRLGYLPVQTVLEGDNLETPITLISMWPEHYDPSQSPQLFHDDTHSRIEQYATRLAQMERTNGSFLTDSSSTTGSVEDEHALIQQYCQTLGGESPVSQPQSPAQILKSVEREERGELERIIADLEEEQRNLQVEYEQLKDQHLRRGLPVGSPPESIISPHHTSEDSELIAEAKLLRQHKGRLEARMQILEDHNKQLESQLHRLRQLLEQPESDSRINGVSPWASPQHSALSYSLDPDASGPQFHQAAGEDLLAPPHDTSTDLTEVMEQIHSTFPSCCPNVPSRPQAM

Molecular target: GFP10-VP40 (EBOV VP40 fused to the 10th beta-strand of GFP) (Ebola virus (EBOV)) (UniProt Q05128)
Assay: split reporter

Substance: CH domain from utrophin fused to GFP B11 (from UniProt P46939) (domain or fragment)
- binding: binds
